Measurements published in paper PMC9223676.

Chains of the proteins cited; added tags and fusions are not shown. Lines headed by an entry give the natural chain unless they say otherwise; changes in a name come on top. A line that says so, or that is headed by a name, gives the form on record, which may keep a tag or linker.
full-length PAR1b (PAR1b-FL), epitope-tagged, expressed in cells (Q7KZI7-14, form named): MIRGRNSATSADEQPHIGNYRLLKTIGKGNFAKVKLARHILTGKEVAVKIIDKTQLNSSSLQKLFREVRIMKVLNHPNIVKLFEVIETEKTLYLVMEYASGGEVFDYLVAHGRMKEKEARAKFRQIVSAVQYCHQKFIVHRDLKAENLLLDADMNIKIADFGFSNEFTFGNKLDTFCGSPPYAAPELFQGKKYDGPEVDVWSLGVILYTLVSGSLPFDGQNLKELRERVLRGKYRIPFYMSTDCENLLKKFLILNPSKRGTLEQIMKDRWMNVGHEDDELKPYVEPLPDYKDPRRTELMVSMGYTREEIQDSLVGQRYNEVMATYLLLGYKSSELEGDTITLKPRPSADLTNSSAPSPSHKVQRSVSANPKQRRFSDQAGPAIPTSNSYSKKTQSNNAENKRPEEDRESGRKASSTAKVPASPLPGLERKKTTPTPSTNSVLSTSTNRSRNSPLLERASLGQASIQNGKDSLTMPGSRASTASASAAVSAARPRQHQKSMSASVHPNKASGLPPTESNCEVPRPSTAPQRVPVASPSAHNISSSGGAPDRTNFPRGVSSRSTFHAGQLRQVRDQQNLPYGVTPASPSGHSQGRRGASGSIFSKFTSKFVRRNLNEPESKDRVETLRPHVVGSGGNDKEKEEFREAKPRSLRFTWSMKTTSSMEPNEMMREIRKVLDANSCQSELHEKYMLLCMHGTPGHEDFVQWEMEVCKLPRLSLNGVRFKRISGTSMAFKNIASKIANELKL

Target: FLAG-PAR1b-∆spacer (UniProt Q7KZI7)
Assay: co-IP; AGS cells transiently co-transfected, total cell lysate after 24 h, anti-FLAG immunoprecipitation, immunoblot for the T7-tagged copy; also after transfection of 2 µg/mL 3000 nt ssDNA or 3000 bp dsDNA for 5 h, and in AGS cells stably expressing EBERs (FLAG- and HA-tagged copies)

Substance: full-length PAR1b (PAR1b-FL), epitope-tagged, expressed in cells (from UniProt Q7KZI7-14 1-745)
- binding: no binding

These are yes or no findings as the source states them, for the method shown. In cells and extracts the contact can be indirect.
